Data as given in PubChem BioAssay AID1671195 (Yale University, 2021)
This is an unselected part of about 22,000 reagents. About 1,510 of them (6.9%) were called active. 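Active includes knockdowns raising or lowering LDL uptake; positive z-scores mean more uptake, negative mean less.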 Reagent sequences are not shown.

Test: 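Genes whose knockdown alters LDL uptake in liver cancer cells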 (primary screen)
System: human Huh7 hepatoma cells
Reagents: siRNA pool against human genes, 18 nM
Timing: about 2 to 2.5 days of knockdown, then 8 h LDL uptake
Conditions: DiI-labelled LDL at 30 µg/ml for 8 h, in lipoprotein-deficient serum medium
Measured: 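Per-cell DiI-LDL intensity by automated imaging; well means scaled to the plate median and given as a robust z-score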
Direction: robust z-score: higher = more LDL uptake after knockdown
Active means: 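Active when two or more replicates show a robust z-score above 2 or below -2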

| Gene | PubChem SID | robust z-score, replicate 1 | robust z-score, replicate 2 | robust z-score, replicate 3 | Outcome |
| --- | --- | --- | --- | --- | --- |
| UGGT1 (UDP-glucose glycoprotein glucosyltransferase 1) | SID442889646 | 0.186 | 0.747 | 0.654 | inactive |
| USP39 (ubiquitin specific peptidase 39) | SID442891487 | 0.17 | 0.357 | 0.314 | inactive |
| SMIM14 (small integral membrane protein 14) | SID442886061 | 1.41 | 1.53 | 0.904 | inactive |
| C8orf76 (chromosome 8 open reading frame 76) | SID442900105 | -0.607 | -0.498 | -1.03 | inactive |
| PTPRU (protein tyrosine phosphatase receptor type U) | SID442891657 | 0.193 | 0.152 | 0.432 | inactive |
| ATRNL1 (attractin like 1) | SID442885035 | 1.51 | 1.94 | 1.69 | inactive |
| ETS2 (ETS proto-oncogene 2, transcription factor) | SID442884729 | 2.57 | 1.6 | 1.55 | inactive |
| MCAM (melanoma cell adhesion molecule) | SID442887447 | 1.63 | 1.08 | 0.023 | inactive |
| TRO (trophinin) | SID442892826 | -0.504 | 0.433 | 0.428 | inactive |
| PAIP2 (poly(A) binding protein interacting protein 2) | SID442889325 | 0.571 | 0.309 | 0.852 | inactive |
| CCNE2 (cyclin E2) | SID442896902 | -0.754 | 0.509 | -0.728 | inactive |
| LOC93429 | SID442901949 | -1.14 | -0.661 | -1.15 | inactive |
| ZNF133 (zinc finger protein 133) | SID442885970 | 0.927 | 1.82 | 1.17 | inactive |
| CNTNAP3 (contactin associated protein family member 3) | SID442900515 | -0.69 | -0.654 | -0.968 | inactive |
| CFAP46 (cilia and flagella associated protein 46) | SID442886846 | 0.542 | 1.41 | 1.19 | inactive |
| CFAP46 (cilia and flagella associated protein 46) | SID442892726 | 0.212 | -0.0862 | 0.267 | inactive |
| CFAP46 (cilia and flagella associated protein 46) | SID442895607 | -0.649 | 0.33 | -0.24 | inactive |
| CFAP46 (cilia and flagella associated protein 46) | SID442897428 | -0.558 | 0.000201 | -0.595 | inactive |
| SLC35A1 | SID442887564 | 0.786 | 0.934 | 0.936 | inactive |
| COL2A1 (collagen type II alpha 1 chain) | SID442889418 | 1.86 | -0.671 | 0.495 | inactive |
| STX1B (syntaxin 1B) | SID442896544 | -0.556 | -0.35 | 0.0529 | inactive |
| ERVW-1 (endogenous retrovirus group W member 1, envelope) | SID442883286 | 5.75 | 4.63 | -0.101 | active |
| FYTTD1 (forty-two-three domain containing 1) | SID442891878 | 0.925 | -0.227 | 0.00755 | inactive |
| RCHY1 (ring finger and CHY zinc finger domain containing 1) | SID442884671 | 1.79 | 1.66 | 2.59 | inactive |
| ALG14 (ALG14 UDP-N-acetylglucosaminyltransferase subunit) | SID442889699 | 0.416 | 0.561 | 0.585 | inactive |
| TMEM68 (transmembrane protein 68) | SID442893807 | -0.409 | 0.162 | 0.273 | inactive |
| ICA1L (islet cell autoantigen 1 like) | SID442889817 | 0.57 | 0.829 | 0.117 | inactive |
| ICA1L (islet cell autoantigen 1 like) | SID442894175 | -0.152 | 0.202 | -0.155 | inactive |
| SNU13 (small nuclear ribonucleoprotein 13) | SID442900254 | -0.884 | -0.355 | -0.967 | inactive |
| B2M (beta-2-microglobulin) | SID442903798 | -1.79 | -1.34 | -1.06 | inactive |
| TENT5C (terminal nucleotidyltransferase 5C) | SID442890877 | 0.238 | 1.51 | -0.665 | inactive |
| LOC389338 (retired record) | SID442899274 | -0.634 | -0.726 | -0.438 | inactive |
| MYH1 (myosin heavy chain 1) | SID442894510 | 0.121 | -0.38 | 0.0457 | inactive |
| OR13F1 (olfactory receptor family 13 subfamily F member 1) | SID442893787 | 0.352 | -0.074 | -0.247 | inactive |
| IL2 (interleukin 2) | SID442883139 | 4.6 | 4.2 | 5.22 | active |
| KPNA4 (karyopherin subunit alpha 4) | SID442890172 | 0.645 | 0.169 | 0.547 | inactive |
| EPB41L1 (erythrocyte membrane protein band 4.1 like 1) | SID442897318 | -0.527 | -0.105 | -0.484 | inactive |
| ATP8B2 (ATPase phospholipid transporting 8B2) | SID442893149 | -0.0256 | 0.518 | -0.242 | inactive |
| GPC3 (glypican 3) | SID442890659 | 0.221 | -0.202 | 1.14 | inactive |
| LOC440932 (retired record) | SID442898986 | -0.177 | -1.1 | -0.407 | inactive |
| CRADD (CARD and death domain containing adaptor protein) | SID442885344 | 1.73 | 1.4 | 1.53 | inactive |
| TARBP2 (TARBP2 subunit of RISC loading complex) | SID442885473 | 1.47 | 1.14 | 1.89 | inactive |
| DMWD (DM1 locus, WD repeat containing) | SID442896254 | -0.0555 | 0.52 | -1.22 | inactive |
| FENDRR (FOXF1 adjacent non-coding developmental regulatory RNA) | SID442889818 | 0.393 | 0.502 | 0.62 | inactive |
| PLD6 (phospholipase D family member 6) | SID442895969 | -0.573 | -0.464 | 0.362 | inactive |
| UCKL1 (uridine-cytidine kinase 1 like 1) | SID442886647 | 0.117 | 3.5 | -0.322 | inactive |
| SRA1 (steroid receptor RNA activator 1) | SID442896658 | 0.0376 | -0.0472 | -0.884 | inactive |
| LOC400756 (retired record) | SID442895831 | -0.084 | -0.452 | -0.095 | inactive |
| LOC401021 | SID442902712 | -1.08 | -1.24 | -1.08 | inactive |
| AMER3 (APC membrane recruitment protein 3) | SID442898544 | -0.516 | -0.528 | -0.488 | inactive |
| SUOX (sulfite oxidase) | SID442890961 | -0.168 | 1.17 | 0.0455 | inactive |
| MRPL57 (mitochondrial ribosomal protein L57) | SID442887431 | 0.37 | 1.47 | 0.903 | inactive |
| LINC01096 (long independently transcribed non-coding RNA 1096) | SID442893306 | 0.336 | -0.283 | 0.141 | inactive |
| ADD2 (adducin 2) | SID442901804 | -0.629 | -1.15 | -1.12 | inactive |
| TMC7 (transmembrane channel like 7) | SID442901161 | -0.668 | -0.766 | -1.14 | inactive |
| UBE2F (ubiquitin conjugating enzyme E2 F (putative)) | SID442887988 | 0.085 | 0.815 | 1.51 | inactive |
| RAB31 (RAB31, member RAS oncogene family) | SID442891367 | 0.235 | 0.113 | 0.537 | inactive |
| CIAPIN1 (cytokine induced apoptosis inhibitor 1) | SID442901303 | -0.235 | -0.986 | -1.42 | inactive |
| MVP (major vault protein) | SID442900792 | -0.298 | -0.63 | -1.5 | inactive |
| GABRG2 (gamma-aminobutyric acid type A receptor subunit gamma2) | SID442890423 | 0.789 | 0.365 | 0.103 | inactive |
| PEX3 (peroxisomal biogenesis factor 3) | SID442883471 | 2.96 | 2.12 | 3.43 | active |
| SIDT2 (SID1 transmembrane family member 2) | SID442895040 | 0.216 | -0.997 | 0.399 | inactive |
| GRM5P1 (GRM5 pseudogene 1) | SID442897304 | -0.392 | -0.126 | -0.595 | inactive |
| TMEM198 (transmembrane protein 198) | SID442895243 | 0.129 | -0.236 | -0.341 | inactive |
| ZHX3 (zinc fingers and homeoboxes 3) | SID442900898 | -0.784 | -0.778 | -0.906 | inactive |
| BZW2 (basic leucine zipper and W2 domains 2) | SID442897234 | 0.645 | -1.6 | -0.135 | inactive |
| LOC439946 (retired record) | SID442896807 | -0.646 | -0.238 | -0.0599 | inactive |
| MED24 (mediator complex subunit 24) | SID442900816 | -0.691 | -0.757 | -0.987 | inactive |

Entries above whose gene name begins with G or g (3):
| Gene | PubChem SID | robust z-score, replicate 1 | robust z-score, replicate 2 | robust z-score, replicate 3 | Outcome |
| --- | --- | --- | --- | --- | --- |
| GPC3 (glypican 3) | SID442890659 | 0.221 | -0.202 | 1.14 | inactive |
| GABRG2 (gamma-aminobutyric acid type A receptor subunit gamma2) | SID442890423 | 0.789 | 0.365 | 0.103 | inactive |
| GRM5P1 (GRM5 pseudogene 1) | SID442897304 | -0.392 | -0.126 | -0.595 | inactive |
